Measured values as given in article PMC8138007.
Results are given in words; binding and its absence hold for the method and conditions named. Binding seen in cells or lysates may run through a third protein. Here binding means that the protein was enriched with, or labelled near, the bait; the list need not be complete.

By UniProt entry, the sequences of proteins in these tests, tags left out.
UniProt P14618: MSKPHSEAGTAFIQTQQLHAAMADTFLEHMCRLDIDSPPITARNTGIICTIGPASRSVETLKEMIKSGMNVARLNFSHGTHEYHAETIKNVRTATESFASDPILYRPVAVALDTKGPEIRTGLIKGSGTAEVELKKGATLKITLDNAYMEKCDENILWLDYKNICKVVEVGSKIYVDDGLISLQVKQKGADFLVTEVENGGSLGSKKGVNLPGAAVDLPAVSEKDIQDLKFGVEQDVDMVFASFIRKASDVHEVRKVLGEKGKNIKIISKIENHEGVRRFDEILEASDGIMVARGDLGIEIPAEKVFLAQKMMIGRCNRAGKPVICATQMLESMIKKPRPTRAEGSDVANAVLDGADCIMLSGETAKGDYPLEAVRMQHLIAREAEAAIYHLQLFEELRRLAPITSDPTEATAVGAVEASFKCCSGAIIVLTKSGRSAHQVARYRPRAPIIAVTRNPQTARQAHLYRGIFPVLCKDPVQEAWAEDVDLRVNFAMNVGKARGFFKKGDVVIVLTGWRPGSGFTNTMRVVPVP

Molecular target: T1, Testes-specific protease 50 (TSP50), endogenous (human (endogenous in Huh7 and Bel7402)) (UniProt Q9UI38)
T1 sequence: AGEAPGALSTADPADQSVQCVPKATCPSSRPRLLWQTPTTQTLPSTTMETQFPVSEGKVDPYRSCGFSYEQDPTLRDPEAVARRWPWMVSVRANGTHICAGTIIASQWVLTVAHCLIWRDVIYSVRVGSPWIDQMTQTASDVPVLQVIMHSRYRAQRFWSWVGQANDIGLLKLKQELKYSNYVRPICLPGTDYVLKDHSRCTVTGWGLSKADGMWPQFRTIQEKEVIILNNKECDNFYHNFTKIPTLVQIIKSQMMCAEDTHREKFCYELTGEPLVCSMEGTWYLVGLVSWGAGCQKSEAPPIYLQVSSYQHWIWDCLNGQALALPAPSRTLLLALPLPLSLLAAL
Experiment: affinity purification with mass spectrometry; proteins binding to endogenous TSP50 in Huh7 cells identified by LC-MS/MS; 50 kDa gel bands excised after SDS-PAGE; non-specific proteins removed

binding: binds
Substance: Pyruvate kinase M2 isoform (PKM2), endogenous (from UniProt P14618 1-531) (enzyme)
